Test results as given in patent publication US9695225B2 (Eli Lilly and Company, priority 2013, dated 2017).

Assay: general procedure: Fmoc solid-phase peptide synthesis; Fmoc-Rink amide polystyrene resin; DIC/HOBt
Conditions: whole synthesis, 220 nm, scale 0.125 mmol, TFA salt converted to acetate salt

HAQGTFLSDYSKYLD[Aib]KKAQEFVEWLLKTGPSSGAPPKSK-NH2
final purity (method not given): >95%

Non-standard residues stand in square brackets, D forms with d. No end group written: not given here. Aib = CC(C)(N)C(=O)O
